{
  "sequences": {"note": "By UniProt entry, the sequences of proteins in these tests, tags left out.", "UniProt Q13263": "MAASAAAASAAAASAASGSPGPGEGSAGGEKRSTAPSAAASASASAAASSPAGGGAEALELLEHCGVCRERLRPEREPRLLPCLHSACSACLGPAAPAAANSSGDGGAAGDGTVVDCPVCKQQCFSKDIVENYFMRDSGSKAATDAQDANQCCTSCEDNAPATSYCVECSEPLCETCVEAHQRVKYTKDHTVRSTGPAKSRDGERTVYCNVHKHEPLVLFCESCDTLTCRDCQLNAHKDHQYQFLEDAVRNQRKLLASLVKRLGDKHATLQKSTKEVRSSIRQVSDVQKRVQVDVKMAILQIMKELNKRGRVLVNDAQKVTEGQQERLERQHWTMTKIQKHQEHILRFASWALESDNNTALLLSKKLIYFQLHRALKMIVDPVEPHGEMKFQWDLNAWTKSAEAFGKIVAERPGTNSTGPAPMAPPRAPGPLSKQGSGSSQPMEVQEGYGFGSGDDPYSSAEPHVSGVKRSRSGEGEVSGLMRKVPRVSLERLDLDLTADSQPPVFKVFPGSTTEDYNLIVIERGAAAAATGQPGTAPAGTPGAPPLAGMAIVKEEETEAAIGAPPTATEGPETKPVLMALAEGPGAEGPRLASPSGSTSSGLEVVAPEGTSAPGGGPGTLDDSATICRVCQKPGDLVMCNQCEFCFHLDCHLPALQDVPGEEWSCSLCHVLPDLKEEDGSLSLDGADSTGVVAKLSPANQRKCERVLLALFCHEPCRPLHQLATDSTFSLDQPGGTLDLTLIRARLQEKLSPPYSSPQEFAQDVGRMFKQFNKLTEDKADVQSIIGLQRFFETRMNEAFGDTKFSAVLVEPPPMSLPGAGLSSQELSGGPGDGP"},
  "source": "paper PMC8670036",
  "molecules": {"B1": {"name": "Prototype foamy virus (PFV) transcriptional transactivator Tas, expressed from the infecting virus (protein, UniProt P14353 1-300)", "chain": "MDSYEKEESVASTSGIQDLQTLSELVGPENAGEGELTIAEEPEENPRRPRRYTKREVKCVSYHAYKEIEDKHPQHIKLQDWIPTPEEMSKSLCKRLILCGLYSAEKASEILRMPFTVSWEQSDTDPDCFIVSYTCIFCDAVIHDPMPIRWDPEVGIWVKYKPLRGIVGSAVFIMHKHQRNCSLVKPSTSCSEGPKPRPRHDPVLRCDMFEKHHKPRQKRPRRRSIDNESCASSSDTMANEPGSLCTNPLWNPGPLLSGLLEESSNLPNLEVHMSGGPFWEEVYGDSILGPPSGSGEHSVL"}},
  "key": {"[1]": {"biological_target": "T1, HA-tagged Tas (prototype foamy virus (PFV)) (UniProt P14353)", "T1 sequence": "B1 chain", "assay": "co-IP"}, "[2]": {"biological_target": "Tripartite motif-containing protein 28 (Trim28), endogenous (human (endogenous in HT1080)) (UniProt Q13263)", "assay": "co-IP; HT1080 cells infected with PFV for 48 h; lysate immunoprecipitated with anti-Trim28 antibody (control IgG); blot anti-Tas and anti-Trim28; NP-40 lysis buffer with 150 mM NaCl, washes with 500 mM NaCl"}},
  "note": "Results are given in words; binding and its absence hold for the method and conditions named. Binding seen in cells or lysates may run through a third protein. Some binding calls cover weakened binding; strength is not graded here. For some assays here: Sequences can lack the tags named with a protein.",
  "data": [
    {"molecule": "Flag-Trim28 (from UniProt Q13263 1-835)", "values": [
      {"measurement": "binding", "setting": "[1]", "value": "binds"}
    ]},
    {"molecule": "B1", "values": [
      {"measurement": "binding", "setting": "[2]", "value": "binds"}
    ]}
  ]
}
